Here are results for 18 compounds from PubChem BioAssay AID196 (DTP/NCI, 2004).

This assay relates to BDF1 mice, intracerebral B16 melanoma, median survival T/C. Briefly: NCI In Vivo Anticancer Drug Screen. Data for tumor model B16 Melanoma (intracerebral) in B6D2F1 (BDF1) mice. The note with it: T/C endpoint: median survival time, higher T/C = longer survival. The procedure:
The antitumor activity of compounds was measured in mice bearing transplantable tumors. Survival or tumor size were measured and the results are expressed as the measurement made in the treated group (T) divided by the measurement made in the vehicle treated control group (C). The tumor model used in this assay is B16 Melanoma (intracerebral) in B6D2F1 (BDF1) mice

Setting [1] is: dose: 512.0 mg/kg/injection, schedule: Q01DX009 (ip), vehicle: Klucel (hydroxypropylcellulose) (HPC).
Where [2] appears, read: dose: 400.0 mg/kg/injection, schedule: Q01DX009 (ip), vehicle: saline with Tween-80.
Where [3] appears, read: dose: 512.0 mg/kg/injection, schedule: Q01DX005 (ip), vehicle: Klucel (hydroxypropylcellulose) (HPC).
[4] abbreviates: dose: 1024.0 mg/kg/injection, schedule: Q01DX005 (ip), vehicle: Klucel (hydroxypropylcellulose) (HPC).
Setting [5] is: dose: 128.0 mg/kg/injection, schedule: Q01DX005 (ip), vehicle: Klucel (hydroxypropylcellulose) (HPC).

The list is a part of this screen's results and no random one: it is rich in T/C values a quarter to a half above the control, in often repeated tests (any T/C) and in doses without a T/C. Further doses and runs are listed elsewhere. T/C gives the treated animals as a percentage of the vehicle group. Some doses have a count of surviving animals in place of a T/C: the source files T/C as zero there, which appears to mark a toxic dose or a test without result, not a measured value. Some doses without a T/C left all or most animals alive at the check, yet need not have been tolerated: survival well below the control is almost never listed, so the zero probably covers shortened survival too. Survivors were counted at the toxicity check, usually on the fifth day, unless a day is given; later deaths do not show. Schedules are NCI's codes, taken here to give the interval after Q, in days (D) or hours (H), and the number of doses after X. Some entries were tested several times; the values are given in rising order. Marks such as (2×) stand for listed records that agree. Where survival is the endpoint, this PubChem deposit counts one and a half times the control or more as active, and values a quarter to a half above the control carry no call in these data; other NCI protocols may use other cut-offs. Some T/C values are followed by the survivors on the day toxicity was checked, most often the fifth; without a count, all were alive then.

As for `O=NN(CCCl)C(=O)NC1CCC(=O)NC1=O` (stereo not given), the T/C was 128 % of control [9 of 10 alive] (dose: 1.0 mg/kg/injection, schedule: Q01DX009 (ip), vehicle: saline with Tween-80); 128 % of control (dose: 10.8 mg/kg/injection, schedule: Q01DX001 (ip), vehicle: other); 146 % of control (dose: 30.0 mg/kg/injection, schedule: Q01DX001 (ip), vehicle: other). Also, the survivor count reads like this: (dose: 33.3 mg/kg/injection, schedule: Q01DX001 (ip), vehicle: Klucel (hydroxypropylcellulose) (HPC)) 9 of 10 on day 6; (dose: 50.0 mg/kg/injection, schedule: Q01DX001 (ip), vehicle: other) 10 of 10; (dose: 60.0 mg/kg/injection, schedule: Q01DX001 (ip), vehicle: Klucel (hydroxypropylcellulose) (HPC)) 10 of 10 on day 6.

For `CC(C)=CCC1=C(O)c2ccccc2C(=O)C1=O`, the survivor count (dose: 32.0 mg/kg/injection, schedule: Q01DX005 (ip), vehicle: Klucel (hydroxypropylcellulose) (HPC)) is recorded as 10 of 10.

On to `CN(C)c1nc(N(C)C)nc(N(C)C)n1`, for which the T/C (dose: 200.0 mg/kg/injection, schedule: Q01DX005 (ip), vehicle: saline with Tween-80) was 130 % of control. In addition, the survivor count is 7 of 10 (dose: 400.0 mg/kg/injection, schedule: Q01DX005 (ip), vehicle: saline with Tween-80) and 1 of 10 (dose: 800.0 mg/kg/injection, schedule: Q01DX005 (ip), vehicle: saline with Tween-80).

With `S=c1nc[nH]c2nc[nH]c12`, for the setting “dose: 90.0 mg/kg/injection, schedule: Q01DX009 (ip), vehicle: other”, the survivor count is given as 1 of 10.

On to `COCC(O)Cn1ccnc1[N+](=O)[O-]` (stereo not given), for which the survivor count under setting [1] is 10 of 10.

As for `O=NN(CCCl)C(=O)NC1[C@H](O)CCC[C@@H]1O` (stereo not given in full), the T/C is 132 % of control (dose: 7.2 mg/kg/injection, schedule: Q01DX001 (ip), vehicle: saline) and 126 % of control (dose: 20.0 mg/kg/injection, schedule: Q01DX001 (ip), vehicle: saline). Moreover, the survivor count (dose: 33.3 mg/kg/injection, schedule: Q01DX001 (ip), vehicle: saline) is 10 of 10 on day 6.

As to `CN(C)/N=N/c1nc[nH]c1C(N)=O`, the T/C reads like this: (dose: 50.0 mg/kg/injection, schedule: Q01DX009 (ip), vehicle: saline) 125 % of control [9 of 10 alive]; (dose: 100.0 mg/kg/injection, schedule: Q01DX009 (ip), vehicle: saline) 125 % of control. For the same compound, under setting [2], the survivor count was 10 of 10.

On to `O=C1NC2(CCCCC2)C(=O)N1CCN(CCCl)CCCl`, for which the survivor count (dose: 24.0 mg/kg/injection, schedule: Q01DX009 (ip), vehicle: saline with Tween-80) was 9 of 10.

Turning to `CC[n+]1c(-c2ccccc2)c2cc(N)ccc2c2ccc(N)cc21`, the survivor count (dose: 24.0 mg/kg/injection, schedule: Q01DX005 (ip), vehicle: saline) was 8 of 10 and 9 of 10; the survivor count (dose: 48.0 mg/kg/injection, schedule: Q01DX005 (ip), vehicle: saline) is on record as 10 of 10; the survivor count (dose: 96.0 mg/kg/injection, schedule: Q01DX005 (ip), vehicle: saline) is reported as 0 of 10.

As to `CN(CO)c1nc(N(C)CO)nc(N(C)CO)n1`, the survivor count is 5 of 10 (dose: 50.0 mg/kg/injection, schedule: Q01DX009 (ip), vehicle: saline with Tween-80); 3 of 10 (dose: 100.0 mg/kg/injection, schedule: Q01DX009 (ip), vehicle: saline with Tween-80); 2 of 10 and 6 of 10 (dose: 200.0 mg/kg/injection, schedule: Q01DX009 (ip), vehicle: Klucel (hydroxypropylcellulose) (HPC)); 10 of 10 (dose: 200.0 mg/kg/injection, schedule: Q01DX009 (ip), vehicle: saline with Tween-80); 0 of 10 (2×) (dose: 400.0 mg/kg/injection, schedule: Q01DX009 (ip), vehicle: Klucel (hydroxypropylcellulose) (HPC)); 8 of 10 under setting [2]. Further, the survivor count (dose: 800.0 mg/kg/injection, schedule: Q01DX009 (ip), vehicle: saline with Tween-80) is listed as 1 of 10.

In the case of `Nc1ncnc2c1ncn2C1OC(COP(=O)(O)O)C(O)C1O` (stereo not given), the T/C by setting is: (dose: 100.0 mg/kg/injection, schedule: Q01DX009 (ip), vehicle: saline, evaluated on day 30) 94 and 111 % of control [9 of 10 alive]; (dose: 100.0 mg/kg/injection, schedule: Q01DX009 (ip), vehicle: saline, evaluated on day 60) 95 and 100 % of control; (dose: 200.0 mg/kg/injection, schedule: Q01DX009 (ip), vehicle: saline, evaluated on day 30) 100 and 103 % of control; (dose: 200.0 mg/kg/injection, schedule: Q01DX009 (ip), vehicle: saline, evaluated on day 60) 100 and 100 % of control [8 of 10 alive]; (dose: 400.0 mg/kg/injection, schedule: Q01DX009 (ip), vehicle: saline, evaluated on day 30) 105 and 106 % of control; (dose: 400.0 mg/kg/injection, schedule: Q01DX009 (ip), vehicle: saline, evaluated on day 60) 94 % of control (2×). Also, the T/C is 99 and 110 % of control (dose: 800.0 mg/kg/injection, schedule: Q01DX009 (ip), vehicle: saline, evaluated on day 30); 97 and 100 % of control (dose: 800.0 mg/kg/injection, schedule: Q01DX009 (ip), vehicle: saline, evaluated on day 60).

On to `Cc1ncc(CO)c(C)c1O`, for which the survivor count reads like this: under setting [3], 0 of 10; under setting [4], 0 of 10.

As for `CN(C)N=Nc1ccc(Cl)c2ncccc12`, the survivor count (dose: 25.0 mg/kg/injection, schedule: Q01DX009 (ip), vehicle: other) is on record as 10 of 10.

As to `CN(Cc1cnc2nc(N)nc(N)c2n1)c1ccc(C(=O)N[C@@H](CCC(=O)O)C(=O)O)cc1`, the survivor count by setting is: (dose: 3.0 mg/kg/injection, schedule: Q01DX009 (ip), vehicle: saline) 10 of 10; (dose: 6.0 mg/kg/injection, schedule: Q01DX009 (ip), vehicle: saline) 10 of 10.

In the case of `CC(=O)NNC(=O)c1ccccn1`, the T/C (dose: 200.0 mg/kg/injection, schedule: Q01DX005 (ip), vehicle: Klucel (hydroxypropylcellulose) (HPC)) is 132 % of control. Besides, the survivor count reads like this: (dose: 400.0 mg/kg/injection, schedule: Q01DX005 (ip), vehicle: Klucel (hydroxypropylcellulose) (HPC)) 0 of 10; (dose: 800.0 mg/kg/injection, schedule: Q01DX005 (ip), vehicle: Klucel (hydroxypropylcellulose) (HPC)) 0 of 10.

With `CC/C(=C(/CC)c1ccc(O)cc1)c1ccc(O)cc1`, the survivor count was 10 of 10 (dose: 16.0 mg/kg/injection, schedule: Q01DX005 (ip), vehicle: saline with Tween-80) and 3 of 6 under setting [1].

Consider `COc1cc(NS(C)(=O)=O)ccc1Nc1c2ccccc2nc2c(C)cccc12`, for which the survivor count (dose: 20.0 mg/kg/injection, schedule: Q04DX003 (ip), vehicle: Klucel (hydroxypropylcellulose) (HPC)) is recorded as 4 of 6; the survivor count (dose: 40.0 mg/kg/injection, schedule: Q04DX003 (ip), vehicle: Klucel (hydroxypropylcellulose) (HPC)) was 6 of 6; the survivor count (dose: 40.0 mg/kg/injection, schedule: Q04DX003 (ip), vehicle: saline) is listed as 5 of 6.

Turning to `COc1cc2c(c3c1c(=O)c1ccccc1n3C)C=CC(C)(C)O2`, the T/C under setting [5] was 132 % of control. In addition, the survivor count runs as follows: under setting [5], 9 of 10; (dose: 256.0 mg/kg/injection, schedule: Q01DX005 (ip), vehicle: Klucel (hydroxypropylcellulose) (HPC)) 0 of 10; under setting [3], 0 of 10; under setting [4], 0 of 10.
